# At least one read-out could not be matched to a standard name with certainty.
# Columns and labels:
# cardiac adenylyl cyclase = experiment: Activation of cardiac adenylyl cyclase by GppNHp, progress curves in cardiac membranes; assay type: biochemical, mouse; details: both transgenic and control mice
# [1] = biological target: adenylyl cyclase, rat liver; details: same conditions; cited from earlier work
structure (smiles),measurement,setting,value
"Nc1nc2c(ncn2[C@@H]2O[C@H](COP(=O)(O)OP(=O)(O)NP(=O)(O)O)[C@@H](O)[C@H]2O)c(=O)[nH]1 [GppNHp, guanyl-5'-yl imidodiphosphate]",Apparent Ka of steady-state adenylyl cyclase activity as a function of GppNHp concentration,cardiac adenylyl cyclase,0.15 µM
same,Ka range previously described,[1],0.05-to-0.25 μM

# Reference: patent US6333447A, “Transgenic model of heart failure” (The General Hospital Corporation, priority 1996, dated 2001)
